For two molecules, binding results are on record in PMC4778850.

Assay [1] has as its target T1, PID (PINOID), tagged protein expressed in E. coli for the pull-down (Arabidopsis thaliana) (UniProt O64682).
T1 sequence: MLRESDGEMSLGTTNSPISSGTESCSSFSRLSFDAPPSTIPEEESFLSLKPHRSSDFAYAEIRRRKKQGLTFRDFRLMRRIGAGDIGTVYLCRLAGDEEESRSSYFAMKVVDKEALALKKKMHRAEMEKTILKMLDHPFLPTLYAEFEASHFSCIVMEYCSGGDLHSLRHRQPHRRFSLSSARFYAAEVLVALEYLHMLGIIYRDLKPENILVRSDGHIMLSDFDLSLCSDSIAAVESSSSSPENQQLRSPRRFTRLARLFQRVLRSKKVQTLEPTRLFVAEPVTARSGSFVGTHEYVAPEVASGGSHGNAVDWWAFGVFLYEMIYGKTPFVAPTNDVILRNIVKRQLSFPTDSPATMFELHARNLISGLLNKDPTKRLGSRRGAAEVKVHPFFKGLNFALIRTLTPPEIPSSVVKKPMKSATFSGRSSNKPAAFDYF
Put plainly: pull-down; His-tagged and GST-tagged proteins from E. coli BL21; Glutathione Sepharose 4B or Ni-NTA agarose (His beads); bound proteins eluted and blotted with anti-GST and anti-HIS; both purified.

Assay [2] deals with T2, PID-Myc (Arabidopsis thaliana) (UniProt O64682).
T2 sequence: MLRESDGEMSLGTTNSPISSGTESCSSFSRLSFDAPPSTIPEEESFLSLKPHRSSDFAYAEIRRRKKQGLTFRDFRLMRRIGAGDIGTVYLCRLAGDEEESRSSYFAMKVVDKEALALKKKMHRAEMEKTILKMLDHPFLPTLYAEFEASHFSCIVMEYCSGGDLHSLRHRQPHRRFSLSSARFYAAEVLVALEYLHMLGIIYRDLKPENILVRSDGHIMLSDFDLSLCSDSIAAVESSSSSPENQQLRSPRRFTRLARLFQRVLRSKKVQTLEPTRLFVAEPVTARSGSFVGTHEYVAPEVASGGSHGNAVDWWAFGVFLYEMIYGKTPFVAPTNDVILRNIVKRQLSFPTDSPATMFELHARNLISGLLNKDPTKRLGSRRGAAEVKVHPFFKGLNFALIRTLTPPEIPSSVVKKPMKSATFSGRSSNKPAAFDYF
Put plainly: co-IP; YFP-NCP1 co-expressed with PID-Myc or WAGs-Myc in N. benthamiana leaves; extract incubated 3 hr with anti-Myc-tag mAb-agarose in IP buffer (20 mM Tris-HCl pH 7.5, 150 mM NaCl, 0.1% Triton X-100); blots with anti-Myc or anti-GFP.

Assay [3] deals with T3, WAG1-Myc (Arabidopsis thaliana) (UniProt Q9C8M5).
T3 sequence: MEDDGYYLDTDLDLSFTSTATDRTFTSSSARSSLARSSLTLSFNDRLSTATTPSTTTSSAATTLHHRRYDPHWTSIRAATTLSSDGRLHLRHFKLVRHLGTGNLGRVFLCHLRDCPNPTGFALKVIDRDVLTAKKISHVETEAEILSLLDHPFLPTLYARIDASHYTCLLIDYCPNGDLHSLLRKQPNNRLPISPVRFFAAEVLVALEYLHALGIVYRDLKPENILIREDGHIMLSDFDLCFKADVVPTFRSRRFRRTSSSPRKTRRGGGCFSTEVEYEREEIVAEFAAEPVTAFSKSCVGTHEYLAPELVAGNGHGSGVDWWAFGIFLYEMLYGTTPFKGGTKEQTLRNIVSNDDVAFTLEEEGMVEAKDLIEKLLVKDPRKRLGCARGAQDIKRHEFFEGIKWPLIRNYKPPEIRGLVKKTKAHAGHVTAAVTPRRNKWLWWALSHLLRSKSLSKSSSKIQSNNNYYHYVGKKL
The assay is described as above.

The target of assay [4] is T4, WAG2-Myc (Arabidopsis thaliana) (UniProt Q9LUL2).
T4 sequence: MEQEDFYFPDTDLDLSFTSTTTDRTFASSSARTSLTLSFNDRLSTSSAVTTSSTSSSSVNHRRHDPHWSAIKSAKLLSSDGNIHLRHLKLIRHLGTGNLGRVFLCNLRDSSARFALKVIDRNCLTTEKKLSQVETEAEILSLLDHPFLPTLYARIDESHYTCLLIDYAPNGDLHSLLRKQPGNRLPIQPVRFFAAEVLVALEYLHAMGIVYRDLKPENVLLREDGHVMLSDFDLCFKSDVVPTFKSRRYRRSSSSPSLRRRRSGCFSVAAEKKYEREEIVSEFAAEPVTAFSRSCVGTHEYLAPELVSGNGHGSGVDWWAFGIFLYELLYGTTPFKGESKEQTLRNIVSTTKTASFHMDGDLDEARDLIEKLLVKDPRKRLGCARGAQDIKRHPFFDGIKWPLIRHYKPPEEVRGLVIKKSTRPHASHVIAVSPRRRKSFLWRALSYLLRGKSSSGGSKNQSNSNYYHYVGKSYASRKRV
Described as above.

No constants are given. Whether binding was seen depends on the method and setting. For some of these results: Binding seen in cells or lysates may run through a third protein. Where a sequence is shown, tags or fusion partners need not be part of it.

B1: NCP1/AtMOB1A, tagged protein expressed in E. coli for the pull-down (protein, UniProt Q9FHI1 1-215)
chain: MSLFGLGRNQKTFRPKKSAPSGSKGAQLRKHIDATLGSGNLREAVRLPPGEDANEWLAVNTVDFFNQVNLLYGTLTEFCTPDNCPTMTAGPKYEYRWADGVQIKKPIEVSAPKYVEYLMDWIETQLDDETLFPQRLGAPFPQNFKDVVKTIFKRLFRVYAHIYHSHFQKIVSLKEEAHLNTCFKHFILFTHEFGLIDKKELAPLQELIESIISPY
Take B1: in assay [1], the binding entry is “no binding”.

B2: YFP-NCP1 (protein, UniProt Q9FHI1 1-215)
chain: MSLFGLGRNQKTFRPKKSAPSGSKGAQLRKHIDATLGSGNLREAVRLPPGEDANEWLAVNTVDFFNQVNLLYGTLTEFCTPDNCPTMTAGPKYEYRWADGVQIKKPIEVSAPKYVEYLMDWIETQLDDETLFPQRLGAPFPQNFKDVVKTIFKRLFRVYAHIYHSHFQKIVSLKEEAHLNTCFKHFILFTHEFGLIDKKELAPLQELIESIISPY
With B2, the binding result in assay [2], in assay [3] and in assay [4] was “no binding” each time.
